From patent US8574585B2, “KDR peptides and vaccines comprising the same” (Oncotherapy Science, Inc., priority 2002, dated 2013)
Part of at least one peptide drawing is inferred or uncertain, most often the ends. Some compounds share one wording; it may come from a single statement. Where no end group is shown, it is not given here.

Test system: B16 cell-induced angiogenic response in A2/Kb TGM
Test: Dorsal air sac (DAS) assay, B16 melanoma cells
Assay type: in vivo, mouse
Experimental: The actual angiogenesis-inhibiting activity of peptide epitopes was evaluated in mice using a DAS assay (see, Clinical Cancer Research, Vol. 5, 2185-2191, August 1999; Cancer Research 62, 6116-6123, Nov. 1, 2002).
Specifically, a membrane filter was fixed to both sides of a chamber ring, and sterilized with ethylene oxide gas. B16 melanoma cells were prepared to 5×10^5 cells/0.15 mL, and injected into the chamber. Mice (A2/kb transgenic mice ([…])) were immobilized face down, and an air sac was produced by injecting 5 to 10 mL of air in to the murine dorsal hypoderm using a syringe. An approximately 1-cm incision was made to the lower part of the sac. The chamber ring, filled with cell suspension solution, was implanted in the dorsal hypoderm, and the skin was closed using a skin stapler. Six days after implantation, the mouse skin was decorticated together with the chamber, fixed in an extended form, and marked with a black rubber ring to observe the newly formed blood vessels using a microscope. […] Therefore, blood vessels of 3-mm or longer within the rubber ring and running in a zigzag manner were determined to be newly formed blood vessels, and were evaluated using an angiogenesis index (AI). AIs was evaluated into six levels, from 0 to 5 according to the number of tortuous blood vessels. All those with five or more tortuous blood vessels were determined to be 5. […]

VLAMFFWLL [SEQ ID NO:54]
ANGIOGENESIS INDEX (AI) (DC pulsed with the peptide, vaccinated twice, AI 0 to 5): (1.3 ± 0.8)
formation of tortuous blood vessels (peptide-pulsed DC compared to DC alone, in words): clearly suppressed
